Test results: patent US20250197820
Where a chain is given by its changes, count along the chain named. For some of these results: Negatives hold for the conditions tested. For some of these results: A weaker result is weaker than the reference pair of the same experiment. For some of these results: Where a protein sequence is shown, tags need not be part of it. For some of these results: Construct, isoform or probe ends are uncertain for at least one entry.

Chains of the proteins cited; added tags and fusions are not shown. Chains listed by the source or under a name are the forms on record and can include a tag or linker.
VEGF165 (Homo sapiens), one chain, as listed by the source: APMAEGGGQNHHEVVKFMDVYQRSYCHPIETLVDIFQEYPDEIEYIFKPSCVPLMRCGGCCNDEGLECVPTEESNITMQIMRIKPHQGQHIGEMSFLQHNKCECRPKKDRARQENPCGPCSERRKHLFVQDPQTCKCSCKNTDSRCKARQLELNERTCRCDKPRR

Tests used:
VEGF165 (Homo sapiens) = assay: SPR; conditions: U as 5-methyl-U, purified recombinant protein, synthetic backbone, variant of ARC224 2'OMe
[1] = target: T1, 2M polymerase (TGLLK T541G K592A) (Thermococcus gorgonarius) (UniProt P56689); assay: activity assay; conditions: primer 2'-OMe, template DNA, purified recombinant protein
T1 sequence: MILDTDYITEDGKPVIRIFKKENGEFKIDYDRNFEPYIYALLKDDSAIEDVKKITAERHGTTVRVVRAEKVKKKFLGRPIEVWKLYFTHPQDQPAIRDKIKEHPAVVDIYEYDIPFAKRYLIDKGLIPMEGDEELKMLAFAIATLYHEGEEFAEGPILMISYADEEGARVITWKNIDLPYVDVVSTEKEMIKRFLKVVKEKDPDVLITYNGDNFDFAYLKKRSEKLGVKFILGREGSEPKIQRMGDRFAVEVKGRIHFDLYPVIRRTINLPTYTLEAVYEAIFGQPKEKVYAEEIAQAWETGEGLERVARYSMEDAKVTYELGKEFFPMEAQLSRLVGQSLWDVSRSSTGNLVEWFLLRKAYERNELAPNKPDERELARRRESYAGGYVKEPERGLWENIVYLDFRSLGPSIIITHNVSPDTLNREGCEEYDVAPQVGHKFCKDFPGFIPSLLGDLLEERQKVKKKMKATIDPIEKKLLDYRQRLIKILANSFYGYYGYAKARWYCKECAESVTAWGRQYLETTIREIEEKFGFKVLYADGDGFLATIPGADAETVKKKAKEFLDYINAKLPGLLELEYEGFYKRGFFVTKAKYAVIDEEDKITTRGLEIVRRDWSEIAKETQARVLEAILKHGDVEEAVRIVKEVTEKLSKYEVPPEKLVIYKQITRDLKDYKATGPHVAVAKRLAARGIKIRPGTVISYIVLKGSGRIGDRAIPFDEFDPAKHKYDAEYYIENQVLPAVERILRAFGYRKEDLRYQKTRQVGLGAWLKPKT

[2] = target: T2, 3M polymerase (TGLLK T541G K592A K664R) (Thermococcus gorgonarius) (UniProt P56689); assay: activity assay; conditions: primer 2'-OMe, template DNA; virtually identical to 2M; purified recombinant protein
T2 sequence: T1 sequence with K664R

[3] = target: T3, 2MN polymerase (2M D614N) (Thermococcus gorgonarius) (UniProt P56689); assay: activity assay; conditions: primer 2'-OMe, template DNA; small enhancement over 2M for 2'OMe-RNA, lesser for MOE-RNA; purified recombinant protein
T3 sequence: T1 sequence with D614N

[4] = target: KOD DGLNK polymerase N210D,Y409G,A485L,D614N,E664K (Thermococcus kodakarensis) (UniProt P77933); assay: activity assay; conditions: primer 2'-OMe, template DNA; best with Mn2+ for 2'OMe-RNA; no efficient MOE-RNA synthesis; purified recombinant protein

CGATATGCAGTTTGAGAAGTCGCGCATTCG [ARC224 all-MOE]
binding result (VEGF165 (Homo sapiens); all 2'-O-MOE, lost virtually all binding): no binding

CGATATGCAGTTTGAGAAGTCGCGCATTCG [ARC224 2'OMe-m5U]
binding result (VEGF165 (Homo sapiens); all 2'-OMe, reduced affinity vs 2'OMe-U): binds more weakly

CCCCTTATTAGCGTTTGCCA / TCGATACTGGTACTAATGATTAACGATGTTGGCAAACGCTAATAAGGGGTCG [2'OMe-RNA primer FD / BFL770]
activity on this sequence ([1]; steady-state single incorporation, NTP KM about 5-fold better for 2'OMe-ATP and MOE-ATP than ATP, 6 mM Mg2+, 50 C, label: 5' 6-FAM primer): active

CCCCTTATTAGCGTTTGCCA / CCCTCTTTCTTCCTCTTCCCGATGCTGGACCAGATAAGCACTTAGCCACGTAGTGCTGTTCGGTAATCGATCTGGCAAACGCTAATAAGGGG [2'OMe-RNA primer FD / TempNpure]
activity on this sequence [2]: active
activity on this sequence [3]: active
activity on this sequence ([1]; full length +72 nt in <5 min (2'OMe-RNA), <20 min (MOE-RNA), Thermopol + MgSO4, 65 C): active
activity on this sequence [4]: less active
